Paper PMC3650004
Results are given in words; binding and its absence hold for the method and conditions named. In cells and extracts the contact can be indirect. Here binding means that the protein was enriched with, or labelled near, the bait; the list need not be complete.

Chains of the proteins cited; added tags and fusions are not shown.
UniProt P12956: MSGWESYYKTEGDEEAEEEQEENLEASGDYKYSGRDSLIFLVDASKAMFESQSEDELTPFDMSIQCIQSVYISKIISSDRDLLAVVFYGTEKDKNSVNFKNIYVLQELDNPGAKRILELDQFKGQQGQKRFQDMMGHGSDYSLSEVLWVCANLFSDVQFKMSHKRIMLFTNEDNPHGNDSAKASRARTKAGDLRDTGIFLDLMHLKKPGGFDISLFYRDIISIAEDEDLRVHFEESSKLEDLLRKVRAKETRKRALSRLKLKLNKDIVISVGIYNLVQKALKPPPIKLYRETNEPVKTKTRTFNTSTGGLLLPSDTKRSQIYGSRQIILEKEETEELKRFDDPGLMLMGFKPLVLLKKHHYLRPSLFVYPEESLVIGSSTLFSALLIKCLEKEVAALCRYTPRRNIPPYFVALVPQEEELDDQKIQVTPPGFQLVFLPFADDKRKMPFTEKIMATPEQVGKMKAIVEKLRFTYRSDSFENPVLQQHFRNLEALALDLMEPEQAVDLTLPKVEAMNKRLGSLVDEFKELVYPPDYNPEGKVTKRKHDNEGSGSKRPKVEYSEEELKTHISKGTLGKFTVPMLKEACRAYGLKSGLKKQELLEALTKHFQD
UniProt P13010: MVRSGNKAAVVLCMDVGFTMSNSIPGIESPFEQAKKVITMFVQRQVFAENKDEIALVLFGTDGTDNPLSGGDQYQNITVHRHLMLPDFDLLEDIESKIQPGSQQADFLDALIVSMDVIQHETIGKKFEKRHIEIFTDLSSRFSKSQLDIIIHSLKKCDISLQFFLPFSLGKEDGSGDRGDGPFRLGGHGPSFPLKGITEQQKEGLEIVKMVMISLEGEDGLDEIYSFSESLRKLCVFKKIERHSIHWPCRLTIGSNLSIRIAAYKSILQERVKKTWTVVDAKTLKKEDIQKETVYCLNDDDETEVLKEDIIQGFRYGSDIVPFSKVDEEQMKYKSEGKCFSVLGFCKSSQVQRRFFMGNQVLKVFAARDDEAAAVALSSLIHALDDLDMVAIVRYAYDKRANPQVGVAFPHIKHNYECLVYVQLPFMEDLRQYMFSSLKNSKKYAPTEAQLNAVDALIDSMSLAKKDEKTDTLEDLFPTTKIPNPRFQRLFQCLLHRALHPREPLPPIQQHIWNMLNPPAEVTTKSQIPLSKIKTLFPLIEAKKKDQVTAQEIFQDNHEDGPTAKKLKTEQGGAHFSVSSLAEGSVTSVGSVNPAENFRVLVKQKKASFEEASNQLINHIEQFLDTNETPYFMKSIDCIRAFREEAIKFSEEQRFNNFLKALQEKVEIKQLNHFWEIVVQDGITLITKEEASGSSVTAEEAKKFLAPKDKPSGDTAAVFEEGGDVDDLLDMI
UniProt Q9Y5B9: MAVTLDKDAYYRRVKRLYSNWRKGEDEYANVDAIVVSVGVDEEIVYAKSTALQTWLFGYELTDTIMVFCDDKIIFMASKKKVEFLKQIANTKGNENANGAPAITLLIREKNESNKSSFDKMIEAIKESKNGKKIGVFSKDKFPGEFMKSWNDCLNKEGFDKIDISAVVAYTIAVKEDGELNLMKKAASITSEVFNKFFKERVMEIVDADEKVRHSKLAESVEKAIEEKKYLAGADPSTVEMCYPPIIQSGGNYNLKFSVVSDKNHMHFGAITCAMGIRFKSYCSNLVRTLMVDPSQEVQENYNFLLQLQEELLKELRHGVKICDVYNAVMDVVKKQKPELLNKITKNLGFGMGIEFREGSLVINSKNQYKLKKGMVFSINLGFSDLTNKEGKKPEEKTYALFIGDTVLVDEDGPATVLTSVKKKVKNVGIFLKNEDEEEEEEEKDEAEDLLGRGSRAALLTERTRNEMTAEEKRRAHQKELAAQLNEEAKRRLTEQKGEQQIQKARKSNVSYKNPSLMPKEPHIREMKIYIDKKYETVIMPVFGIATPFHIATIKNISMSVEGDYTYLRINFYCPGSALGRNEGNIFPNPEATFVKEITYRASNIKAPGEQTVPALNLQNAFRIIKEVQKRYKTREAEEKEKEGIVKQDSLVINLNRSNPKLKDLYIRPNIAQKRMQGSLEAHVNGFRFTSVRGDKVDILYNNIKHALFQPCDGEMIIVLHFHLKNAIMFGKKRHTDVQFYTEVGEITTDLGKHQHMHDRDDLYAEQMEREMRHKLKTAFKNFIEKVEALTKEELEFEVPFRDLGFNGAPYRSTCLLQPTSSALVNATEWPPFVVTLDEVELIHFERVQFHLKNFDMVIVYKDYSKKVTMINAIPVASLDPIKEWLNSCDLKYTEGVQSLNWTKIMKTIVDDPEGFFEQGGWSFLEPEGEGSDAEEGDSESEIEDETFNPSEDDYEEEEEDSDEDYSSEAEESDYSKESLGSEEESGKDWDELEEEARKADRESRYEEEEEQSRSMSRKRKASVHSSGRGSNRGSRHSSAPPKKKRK

biological target: T1, SMARCAL1 (endogenous) (human (endogenous in HeLa)) (UniProt Q9NZC9); assay: affinity purification with mass spectrometry; SMARCAL1 immunopurified from HeLa cell extracts with antibody 909 (peptide elution), and Flag(-HA)-SMARCAL1 purified from HEK293T cells; untreated or 2 mM HU for 16 h; 2D-LC tandem mass spectrometry; the text names the hits of both purifications …
T1 sequence: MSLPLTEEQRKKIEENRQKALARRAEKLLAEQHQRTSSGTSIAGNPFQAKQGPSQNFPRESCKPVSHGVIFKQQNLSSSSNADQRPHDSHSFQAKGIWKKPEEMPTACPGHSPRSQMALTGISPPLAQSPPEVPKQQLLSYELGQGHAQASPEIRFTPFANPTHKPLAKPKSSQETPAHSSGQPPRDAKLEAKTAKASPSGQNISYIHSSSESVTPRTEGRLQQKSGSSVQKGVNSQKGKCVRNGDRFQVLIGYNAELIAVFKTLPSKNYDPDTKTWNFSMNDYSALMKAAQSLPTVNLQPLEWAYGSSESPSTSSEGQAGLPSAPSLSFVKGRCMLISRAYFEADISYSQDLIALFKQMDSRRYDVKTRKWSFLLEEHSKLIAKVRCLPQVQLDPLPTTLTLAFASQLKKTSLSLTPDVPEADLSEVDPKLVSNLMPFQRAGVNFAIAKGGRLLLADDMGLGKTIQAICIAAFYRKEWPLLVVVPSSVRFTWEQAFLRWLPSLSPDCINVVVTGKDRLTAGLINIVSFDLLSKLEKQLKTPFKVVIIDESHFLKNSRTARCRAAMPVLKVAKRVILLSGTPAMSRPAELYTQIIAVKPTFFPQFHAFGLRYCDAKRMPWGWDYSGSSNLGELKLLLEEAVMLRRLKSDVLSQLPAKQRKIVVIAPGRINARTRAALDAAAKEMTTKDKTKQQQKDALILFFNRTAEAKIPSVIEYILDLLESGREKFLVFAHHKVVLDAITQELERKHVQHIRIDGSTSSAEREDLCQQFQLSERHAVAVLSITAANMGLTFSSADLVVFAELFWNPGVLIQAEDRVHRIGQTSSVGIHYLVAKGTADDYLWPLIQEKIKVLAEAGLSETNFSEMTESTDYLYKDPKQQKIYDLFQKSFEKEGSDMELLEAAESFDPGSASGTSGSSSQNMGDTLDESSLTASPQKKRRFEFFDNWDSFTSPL

Q: Which binding does the source give for “KU70 (endogenous) (from UniProt P12956 1-609)” here?
A: binds

Q: How did the binding turn out when “KU80 (endogenous) (from UniProt P13010 1-732)” was run?
A: binds

Q: Which binding does the source give for “SPT16 (endogenous) (from UniProt Q9Y5B9 1-1047)” here?
A: binds
